The supplement of paper PMC12823440, “Inhibitors supercharge kinase turnover through native proteolytic circuits” (Nature, 2025)
Counter-ions that a name gives are not always drawn. Some of the results follow. The calls rarely recur for the same compound in another form.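 Kinases, fused to nanoluciferase, were expressed in K562 cells; luminescence was measured every 4 h from 2 to 18 h as percent of control (DMSO = 100%, positive control = 0%). A time point is decreased if signal falls significantly (2 sigma). Hits were called by the authors by a rule that is not shown; the count of time points alone does not decide it.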

By UniProt entry, the sequences of proteins in these tests, tags left out. Where a name states a change or a piece, a line headed by the entry shows the natural chain unless it says otherwise.
UniProt O75460: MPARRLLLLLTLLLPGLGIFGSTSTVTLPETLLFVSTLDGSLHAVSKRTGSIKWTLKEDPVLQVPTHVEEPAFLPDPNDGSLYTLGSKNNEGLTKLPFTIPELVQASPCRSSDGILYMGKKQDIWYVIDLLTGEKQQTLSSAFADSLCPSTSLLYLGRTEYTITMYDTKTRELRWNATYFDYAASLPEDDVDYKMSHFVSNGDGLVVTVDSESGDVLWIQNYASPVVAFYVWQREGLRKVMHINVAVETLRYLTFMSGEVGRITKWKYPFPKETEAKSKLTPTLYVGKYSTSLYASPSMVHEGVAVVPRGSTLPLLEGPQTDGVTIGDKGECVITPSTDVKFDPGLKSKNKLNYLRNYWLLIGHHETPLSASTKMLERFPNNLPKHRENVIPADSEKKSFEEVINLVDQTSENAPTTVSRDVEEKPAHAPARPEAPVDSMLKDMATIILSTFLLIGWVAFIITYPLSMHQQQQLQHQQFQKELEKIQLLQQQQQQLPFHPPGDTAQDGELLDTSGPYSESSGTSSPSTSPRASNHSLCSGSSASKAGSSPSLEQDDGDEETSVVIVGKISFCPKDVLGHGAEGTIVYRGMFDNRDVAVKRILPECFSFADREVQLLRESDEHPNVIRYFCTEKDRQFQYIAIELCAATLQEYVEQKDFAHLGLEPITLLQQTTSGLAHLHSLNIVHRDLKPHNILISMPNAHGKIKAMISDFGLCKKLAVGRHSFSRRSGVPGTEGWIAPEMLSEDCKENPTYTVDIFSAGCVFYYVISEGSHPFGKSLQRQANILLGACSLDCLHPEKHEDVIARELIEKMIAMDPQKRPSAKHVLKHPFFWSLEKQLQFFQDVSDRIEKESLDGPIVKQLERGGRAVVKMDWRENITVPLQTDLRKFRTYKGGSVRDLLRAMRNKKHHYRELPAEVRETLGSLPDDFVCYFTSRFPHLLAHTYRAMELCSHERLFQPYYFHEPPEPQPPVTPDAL
UniProt P11362, whole entry, looked up: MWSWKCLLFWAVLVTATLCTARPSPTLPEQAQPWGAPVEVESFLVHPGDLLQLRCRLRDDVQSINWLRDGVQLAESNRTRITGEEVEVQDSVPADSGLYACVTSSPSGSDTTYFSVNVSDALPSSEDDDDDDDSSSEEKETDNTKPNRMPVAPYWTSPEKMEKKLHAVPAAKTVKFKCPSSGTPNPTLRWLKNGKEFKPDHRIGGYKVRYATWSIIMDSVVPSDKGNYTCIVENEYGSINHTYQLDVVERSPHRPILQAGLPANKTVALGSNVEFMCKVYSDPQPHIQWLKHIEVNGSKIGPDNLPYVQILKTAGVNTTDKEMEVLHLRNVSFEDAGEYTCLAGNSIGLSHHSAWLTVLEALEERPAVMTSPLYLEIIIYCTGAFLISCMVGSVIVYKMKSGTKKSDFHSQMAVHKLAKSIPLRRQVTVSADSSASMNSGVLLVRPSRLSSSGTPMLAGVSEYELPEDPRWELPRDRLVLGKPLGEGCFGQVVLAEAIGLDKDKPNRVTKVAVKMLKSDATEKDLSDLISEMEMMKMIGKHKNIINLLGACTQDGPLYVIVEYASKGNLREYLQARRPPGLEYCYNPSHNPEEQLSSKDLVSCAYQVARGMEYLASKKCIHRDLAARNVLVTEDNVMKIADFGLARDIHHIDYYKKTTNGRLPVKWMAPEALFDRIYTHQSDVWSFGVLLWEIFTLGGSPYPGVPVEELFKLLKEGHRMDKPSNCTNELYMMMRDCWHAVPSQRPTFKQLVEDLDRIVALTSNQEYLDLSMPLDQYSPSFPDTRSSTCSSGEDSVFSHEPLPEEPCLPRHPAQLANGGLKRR
UniProt P21802, whole entry, looked up: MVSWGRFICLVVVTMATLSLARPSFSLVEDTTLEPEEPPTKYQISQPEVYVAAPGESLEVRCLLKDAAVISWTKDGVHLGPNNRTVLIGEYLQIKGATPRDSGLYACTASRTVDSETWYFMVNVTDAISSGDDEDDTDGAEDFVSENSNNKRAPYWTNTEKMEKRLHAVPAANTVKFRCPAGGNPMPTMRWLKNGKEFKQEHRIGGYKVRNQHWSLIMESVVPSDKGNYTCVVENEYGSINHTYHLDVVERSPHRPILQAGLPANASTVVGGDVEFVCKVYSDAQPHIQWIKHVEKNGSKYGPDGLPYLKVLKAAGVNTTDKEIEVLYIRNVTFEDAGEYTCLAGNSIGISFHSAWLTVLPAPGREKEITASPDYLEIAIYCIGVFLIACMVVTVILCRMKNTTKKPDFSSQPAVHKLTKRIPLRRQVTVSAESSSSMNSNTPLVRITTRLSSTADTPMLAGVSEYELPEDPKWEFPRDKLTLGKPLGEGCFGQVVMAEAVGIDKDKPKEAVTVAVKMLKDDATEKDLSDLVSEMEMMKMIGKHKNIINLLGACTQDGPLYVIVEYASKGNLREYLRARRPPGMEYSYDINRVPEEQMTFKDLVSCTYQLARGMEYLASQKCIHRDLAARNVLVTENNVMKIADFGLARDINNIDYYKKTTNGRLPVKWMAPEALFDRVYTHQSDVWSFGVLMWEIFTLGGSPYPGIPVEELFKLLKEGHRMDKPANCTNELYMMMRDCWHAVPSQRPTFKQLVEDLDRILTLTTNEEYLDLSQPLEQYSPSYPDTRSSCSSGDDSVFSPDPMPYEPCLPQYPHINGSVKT
UniProt P22607, whole entry, looked up: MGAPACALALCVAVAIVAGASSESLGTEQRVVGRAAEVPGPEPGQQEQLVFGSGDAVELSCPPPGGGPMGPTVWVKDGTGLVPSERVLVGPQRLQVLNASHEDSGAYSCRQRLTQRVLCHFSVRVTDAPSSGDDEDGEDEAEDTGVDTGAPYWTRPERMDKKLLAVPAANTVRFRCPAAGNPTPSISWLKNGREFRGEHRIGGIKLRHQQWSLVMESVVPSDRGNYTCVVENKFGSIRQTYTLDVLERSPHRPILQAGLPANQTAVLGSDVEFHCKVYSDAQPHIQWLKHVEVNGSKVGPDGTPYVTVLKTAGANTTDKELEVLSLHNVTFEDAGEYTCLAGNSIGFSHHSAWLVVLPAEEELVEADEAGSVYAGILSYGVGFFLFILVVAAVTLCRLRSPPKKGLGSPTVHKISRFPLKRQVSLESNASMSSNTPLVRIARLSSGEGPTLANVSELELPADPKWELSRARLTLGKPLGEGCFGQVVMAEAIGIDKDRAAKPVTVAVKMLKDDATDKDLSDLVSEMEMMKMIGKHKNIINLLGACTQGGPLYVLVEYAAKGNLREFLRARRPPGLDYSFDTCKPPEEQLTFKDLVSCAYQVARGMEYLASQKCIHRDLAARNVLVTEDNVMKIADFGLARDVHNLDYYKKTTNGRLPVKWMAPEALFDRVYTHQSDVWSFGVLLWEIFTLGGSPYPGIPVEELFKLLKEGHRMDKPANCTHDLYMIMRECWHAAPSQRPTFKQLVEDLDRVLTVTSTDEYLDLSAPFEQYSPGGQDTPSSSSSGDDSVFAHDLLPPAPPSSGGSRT
UniProt P36888, whole entry: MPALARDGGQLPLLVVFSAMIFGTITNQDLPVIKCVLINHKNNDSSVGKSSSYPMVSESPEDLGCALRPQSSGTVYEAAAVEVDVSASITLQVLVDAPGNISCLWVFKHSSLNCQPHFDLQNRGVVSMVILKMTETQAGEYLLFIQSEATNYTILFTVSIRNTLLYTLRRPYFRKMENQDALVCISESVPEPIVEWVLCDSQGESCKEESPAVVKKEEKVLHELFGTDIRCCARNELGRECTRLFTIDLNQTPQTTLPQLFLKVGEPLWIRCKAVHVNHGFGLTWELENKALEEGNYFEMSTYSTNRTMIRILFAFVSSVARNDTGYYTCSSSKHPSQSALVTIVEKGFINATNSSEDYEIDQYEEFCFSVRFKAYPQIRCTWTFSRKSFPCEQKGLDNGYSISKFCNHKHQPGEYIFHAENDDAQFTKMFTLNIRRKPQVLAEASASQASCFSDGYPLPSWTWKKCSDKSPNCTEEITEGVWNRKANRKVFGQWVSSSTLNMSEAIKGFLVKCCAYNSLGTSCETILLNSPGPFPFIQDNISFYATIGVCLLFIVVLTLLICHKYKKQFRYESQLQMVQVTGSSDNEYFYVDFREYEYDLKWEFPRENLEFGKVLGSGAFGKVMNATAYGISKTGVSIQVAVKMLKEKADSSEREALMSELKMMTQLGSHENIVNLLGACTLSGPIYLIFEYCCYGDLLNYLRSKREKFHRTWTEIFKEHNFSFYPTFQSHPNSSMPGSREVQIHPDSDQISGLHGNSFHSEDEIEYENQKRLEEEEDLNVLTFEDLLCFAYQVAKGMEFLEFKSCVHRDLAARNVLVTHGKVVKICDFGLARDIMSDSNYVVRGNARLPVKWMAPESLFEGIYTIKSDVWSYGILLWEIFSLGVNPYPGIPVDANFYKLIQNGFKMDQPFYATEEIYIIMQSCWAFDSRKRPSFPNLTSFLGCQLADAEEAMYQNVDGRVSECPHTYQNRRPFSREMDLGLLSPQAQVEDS
UniProt P49840: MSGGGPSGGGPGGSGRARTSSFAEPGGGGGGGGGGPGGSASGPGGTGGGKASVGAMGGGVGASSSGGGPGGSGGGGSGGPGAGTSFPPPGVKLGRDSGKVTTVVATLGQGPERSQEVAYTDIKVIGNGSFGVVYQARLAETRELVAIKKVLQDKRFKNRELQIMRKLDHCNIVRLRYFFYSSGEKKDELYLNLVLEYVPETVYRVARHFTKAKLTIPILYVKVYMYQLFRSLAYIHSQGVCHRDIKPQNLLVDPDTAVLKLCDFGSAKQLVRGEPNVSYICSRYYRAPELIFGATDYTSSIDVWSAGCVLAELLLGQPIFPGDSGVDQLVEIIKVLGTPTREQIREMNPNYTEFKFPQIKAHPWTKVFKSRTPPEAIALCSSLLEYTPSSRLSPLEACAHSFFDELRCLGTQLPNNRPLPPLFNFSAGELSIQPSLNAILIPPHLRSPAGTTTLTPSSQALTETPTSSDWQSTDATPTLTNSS
UniProt P14616: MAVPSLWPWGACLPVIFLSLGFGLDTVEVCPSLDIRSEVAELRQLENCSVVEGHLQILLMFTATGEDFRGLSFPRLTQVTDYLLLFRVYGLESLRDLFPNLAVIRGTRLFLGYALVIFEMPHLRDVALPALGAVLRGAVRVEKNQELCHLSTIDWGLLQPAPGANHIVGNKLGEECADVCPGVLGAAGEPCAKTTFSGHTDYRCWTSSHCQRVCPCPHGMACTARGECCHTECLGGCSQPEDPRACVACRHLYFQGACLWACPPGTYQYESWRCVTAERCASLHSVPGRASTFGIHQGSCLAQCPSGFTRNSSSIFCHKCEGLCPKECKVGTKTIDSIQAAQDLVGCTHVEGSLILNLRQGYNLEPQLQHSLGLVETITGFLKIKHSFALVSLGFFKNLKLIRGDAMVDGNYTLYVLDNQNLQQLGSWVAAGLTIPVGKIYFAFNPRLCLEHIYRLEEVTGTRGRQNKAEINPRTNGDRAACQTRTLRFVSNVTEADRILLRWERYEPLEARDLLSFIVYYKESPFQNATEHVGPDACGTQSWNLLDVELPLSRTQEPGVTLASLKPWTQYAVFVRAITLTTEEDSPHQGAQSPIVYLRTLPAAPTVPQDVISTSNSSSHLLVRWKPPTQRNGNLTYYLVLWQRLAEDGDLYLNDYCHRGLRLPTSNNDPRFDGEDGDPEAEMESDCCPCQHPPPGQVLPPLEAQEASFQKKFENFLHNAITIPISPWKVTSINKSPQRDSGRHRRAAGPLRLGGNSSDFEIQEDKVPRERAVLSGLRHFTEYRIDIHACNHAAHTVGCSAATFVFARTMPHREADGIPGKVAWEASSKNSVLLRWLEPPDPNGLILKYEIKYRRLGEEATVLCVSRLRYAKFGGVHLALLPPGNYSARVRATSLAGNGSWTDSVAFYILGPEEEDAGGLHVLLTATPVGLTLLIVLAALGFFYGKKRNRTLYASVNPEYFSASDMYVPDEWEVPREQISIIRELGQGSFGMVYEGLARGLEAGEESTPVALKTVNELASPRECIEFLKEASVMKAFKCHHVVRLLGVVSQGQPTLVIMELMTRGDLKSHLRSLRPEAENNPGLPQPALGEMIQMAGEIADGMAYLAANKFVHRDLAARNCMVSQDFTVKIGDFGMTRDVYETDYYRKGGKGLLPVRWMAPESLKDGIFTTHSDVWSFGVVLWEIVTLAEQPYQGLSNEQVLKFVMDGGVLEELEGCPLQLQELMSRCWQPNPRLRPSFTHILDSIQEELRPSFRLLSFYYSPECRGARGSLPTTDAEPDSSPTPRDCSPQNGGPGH

Legend:
Assay in all cases: kinase-Nluc reporter destabilization hit call (1 = scored as downregulated) (binary); higher = compound decreases kinase abundance
Details in all cases: K562; 2-18 h
[1] = target: ERN1 (UniProt O75460)
[2] = target: FGFR1 (UniProt P11362)
[3] = target: FGFR2 (UniProt P21802)
[4] = target: FGFR3 (UniProt P22607)
[5] = target: FGR (UniProt P09769)
[6] = target: FLT3 (UniProt P36888)
[7] = target: FYN (UniProt P06241)
[8] = target: GSK3A (UniProt P49840)
[9] = target: HER2 (UniProt P04626)
[10] = target: INSRR (UniProt P14616)

Measured: kinase-Nluc reporter destabilization hit call

C1=N/C2=N/c3ccc(OCCN4CCCC4)c(c3)COC/C=C/COCc3cccc(c3)C(=C1)N2 [Pacritinib] (2.5 µM)
inactive: [1] 0 | [2] 0 | [3] 0 | [4] 0 | [5] 0 | [6] 0 | [7] 0 | [8] 0 | [9] 0 | [10] 0

C=CC(=O)Nc1cccc(Oc2nc(Nc3ccc(N4CCN(C)CC4)cc3)nc3ccsc23)c1 [Olmutinib] (2.5 µM)
inactive: [1] 0 | [2] 0 | [3] 0 | [4] 0 | [5] 0 | [6] 0 | [7] 0 | [8] 0 | [9] 0 | [10] 0

O=c1sn(-c2cccc3ccccc23)c(=O)n1Cc1ccccc1 [Tideglusib] (10 µM)
inactive: [1] 0 | [2] 0 | [3] 0 | [4] 0 | [5] 0 | [6] 0 | [7] 0 | [8] 0 | [9] 0 | [10] 0

O=S(=O)(c1cccc2c(Cl)cccc12)N1CCCNCC1 (10 µM)
inactive: [1] 0 | [2] 0 | [3] 0 | [4] 0 | [5] 0 | [6] 0 | [7] 0 | [8] 0 | [9] 0 | [10] 0

Cn1sc(=O)n(Cc2ccccc2)c1=O (10 µM)
inactive: [1] 0 | [2] 0 | [3] 0 | [4] 0 | [5] 0 | [6] 0 | [7] 0 | [8] 0 | [9] 0 | [10] 0

CCN1C(C)(C)CC(Oc2ccc(C(=O)Nc3ccc(NC(=O)Nc4cc(C(C)(C)C)on4)cc3)nc2)CC1(C)C (10 µM)
inactive: [1] 0 | [2] 0 | [3] 0 | [4] 0 | [5] 0 | [6] 0 | [7] 0 | [8] 0 | [9] 0 | [10] 0

Cn1cc(C2=C(c3c4n(c5ccccc35)CCC(CN)C4)C(=O)NC2=O)c2ccccc21 (stereo not given) [Bisindolylmaleimide X (hydrochloride)] (2.5 µM)
inactive: [1] 0 | [2] 0 | [3] 0 | [4] 0 | [5] 0 | [6] 0 | [7] 0 | [8] 0 | [9] 0 | [10] 0

CNC(=O)c1nnc(NC(=O)C2CC2)cc1Nc1cccc(-c2ncn(C)n2)c1OC [Deucravacitinib] (10 µM)
inactive: [1] 0 | [2] 0 | [3] 0 | [4] 0 | [5] 0 | [6] 0 | [7] 0 | [8] 0 | [9] 0 | [10] 0

CNC[C@@H](NC(=O)c1ccc(-c2nc([C@H]3CC[C@H](O)[C@@H](F)C3)cnc2N)cc1F)c1cc(F)cc(Br)c1 [Rineterkib] (10 µM)
inactive: [1] 0 | [2] 0 | [3] 0 | [4] 0 | [5] 0 | [6] 0 | [7] 0 | [8] 0 | [9] 0 | [10] 0

C[C@@H](Nc1cc(F)cc(F)c1)c1cc(C(=O)N(C)C)cc2c(=O)cc(N3CCOCC3)oc12 (10 µM)
inactive: [1] 0 | [2] 0 | [3] 0 | [4] 0 | [5] 0 | [6] 0 | [7] 0 | [8] 0 | [9] 0 | [10] 0

COC(=O)c1cc2c(OC(C)C)cc(OC(C)C)cc2[nH]1 (2.5 µM)
inactive: [1] 0 | [2] 0 | [3] 0 | [4] 0 | [5] 0 | [6] 0 | [7] 0 | [8] 0 | [9] 0 | [10] 0

OCCC#Cc1nc(-c2ccc(F)cc2)c(-c2ccncc2)n1CCCc1ccccc1 (2.5 µM)
inactive: [1] 0 | [2] 0 | [3] 0 | [4] 0 | [5] 0 | [6] 0 | [7] 0 | [8] 0 | [9] 0 | [10] 0

N#Cc1cn([C@@H]2O[C@H](CO)[C@@H](O)[C@H]2O)c2nc[nH]c(=O)c12 [Jaspamycin] (10 µM)
inactive: [1] 0 | [2] 0 | [3] 0 | [4] 0 | [5] 0 | [6] 0 | [7] 0 | [8] 0 | [9] 0 | [10] 0

O=C1c2cccc(O)c2C(=O)c2c(O)cccc21 [Danthron] (10 µM)
inactive: [1] 0 | [2] 0 | [3] 0 | [4] 0 | [5] 0 | [6] 0 | [7] 0 | [8] 0 | [9] 0 | [10] 0

O=C(Nc1nc2cccc(-c3ccc(CN4CCS(=O)(=O)CC4)cc3)n2n1)C1CC1 [Filgotinib] (2.5 µM)
inactive: [1] 0 | [2] 0 | [3] 0 | [4] 0 | [5] 0 | [6] 0 | [7] 0 | [8] 0 | [9] 0 | [10] 0

O=C1c2c(O)cc(O)cc2O[C@H](c2cc(O)c(O)c(O)c2)[C@H]1O [Dihydromyricetin] (10 µM)
inactive: [1] 0 | [2] 0 | [3] 0 | [4] 0 | [5] 0 | [6] 0 | [7] 0 | [8] 0 | [9] 0 | [10] 0

COc1ccc(S(=O)(=O)N(CCO)c2ccccc2CN(C)CC=Cc2ccc(Cl)cc2)cc1 (2.5 µM)
inactive: [1] 0 | [2] 0 | [3] 0 | [4] 0 | [5] 0 | [6] 0 | [7] 0 | [8] 0 | [9] 0 | [10] 0

Cc1cccc(-c2[nH]c(C(C)(C)C)nc2-c2ccc3c(c2)OCO3)n1 (2.5 µM)
inactive: [1] 0 | [2] 0 | [3] 0 | [4] 0 | [5] 0 | [6] 0 | [7] 0 | [8] 0 | [9] 0 | [10] 0

CN1CCN(c2ccc(NC(=O)c3ccc(C#N)o3)c(N3CCCCC3)c2)CC1 (10 µM)
inactive: [1] 0 | [2] 0 | [3] 0 | [4] 0 | [5] 0 | [6] 0 | [7] 0 | [8] 0 | [9] 0 | [10] 0

COc1ccc(-c2cnc3c(-c4cccc5ncccc45)cnn3c2)cc1 (10 µM)
inactive: [1] 0 | [2] 0 | [3] 0 | [4] 0 | [5] 0 | [6] 0 | [7] 0 | [8] 0 | [9] 0 | [10] 0

Cc1cc([N+](=O)[O-])c(NS(=O)(=O)c2cccc(C(=O)O)c2)cc1-c1cccnc1 [Alofanib] (10 µM)
inactive: [1] 0 | [2] 0 | [3] 0 | [4] 0 | [5] 0 | [6] 0 | [7] 0 | [8] 0 | [9] 0 | [10] 0

CC(C)=CCC/C(C)=C/CC/C(C)=C/CSc1ccccc1C(=O)O [Salirasib] (10 µM)
inactive: [1] 0 | [2] 0 | [3] 0 | [4] 0 | [5] 0 | [6] 0 | [7] 0 | [8] 0 | [9] 0 | [10] 0

COc1cccc(Nc2ncnn3ccc(CN4CC[C@@H](N)[C@H](O)C4)c23)c1 (2.5 µM)
inactive: [1] 0 | [2] 0 | [3] 0 | [4] 0 | [5] 0 | [6] 0 | [7] 0 | [8] 0 | [9] 0 | [10] 0

Sorted by number of heavy atoms (ascending): some entries from above.
CC(C)=CCC/C(C)=C/CC/C(C)=C/CSc1ccccc1C(=O)O [Salirasib] (10 µM)
inactive: [1] 0 | [2] 0 | [3] 0 | [4] 0 | [5] 0 | [6] 0 | [7] 0 | [8] 0 | [9] 0 | [10] 0

COc1ccc(-c2cnc3c(-c4cccc5ncccc45)cnn3c2)cc1 (10 µM)
inactive: [1] 0 | [2] 0 | [3] 0 | [4] 0 | [5] 0 | [6] 0 | [7] 0 | [8] 0 | [9] 0 | [10] 0

CN1CCN(c2ccc(NC(=O)c3ccc(C#N)o3)c(N3CCCCC3)c2)CC1 (10 µM)
inactive: [1] 0 | [2] 0 | [3] 0 | [4] 0 | [5] 0 | [6] 0 | [7] 0 | [8] 0 | [9] 0 | [10] 0

(more compounds)

C[C@H](CC[C@@H](O)C(C)(C)O)[C@H]1CC[C@@]2(C)[C@@H]3CC=C4[C@@H](CC[C@H](O)C4(C)C)[C@]3(C)[C@H](O)C[C@]12C [Mogrol] (10 µM)
inactive: [1] 0 | [2] 0 | [3] 0 | [4] 0 | [5] 0 | [6] 0 | [7] 0 | [8] 0 | [9] 0 | [10] 0

O=C(Nc1cc(Cl)cc(Cl)c1)Nc1cc(Cl)cc(Cl)c1 (10 µM)
inactive: [1] 0 | [2] 0 | [3] 0 | [4] 0 | [5] 0 | [6] 0 | [7] 0 | [8] 0 | [9] 0 | [10] 0

CC(C)[C@H](CO)Nc1nc(Nc2ccc(C(=O)O)c(Cl)c2)c2ncn(C(C)C)c2n1 [Purvalanol B] (10 µM)
inactive: [1] 0 | [2] 0 | [3] 0 | [4] 0 | [5] 0 | [6] 0 | [7] 0 | [8] 0 | [9] 0 | [10] 0

NC(=O)c1nc(-c2c(F)cccc2Cl)oc1Nc1ccc(C(=O)N2CCOCC2)cc1 (10 µM)
inactive: [1] 0 | [2] 0 | [3] 0 | [4] 0 | [5] 0 | [6] 0 | [7] 0 | [8] 0 | [9] 0 | [10] 0

CC(C)=C/C=C1\O[C@@H]2CC(C)=CC(=O)[C@@H]2[C@]1(C)O [Bisabolangelone] (10 µM)
inactive: [1] 0 | [2] 0 | [3] 0 | [4] 0 | [5] 0 | [6] 0 | [7] 0 | [8] 0 | [9] 0 | [10] 0

O=c1cc(-c2ccc(O)cc2)oc2cc(O)c([C@@H]3O[C@H](CO)[C@@H](O)[C@H](O)[C@H]3O)c(O)c12 [Isovitexin] (10 µM)
inactive: [1] 0 | [2] 0 | [3] 0 | [4] 0 | [5] 0 | [6] 0 | [7] 0 | [8] 0 | [9] 0 | [10] 0

CC(C)(C)c1ccc(C(=O)Nc2cn3cc(-n4ccnc4)ccc3n2)cc1 (10 µM)
inactive: [1] 0 | [2] 0 | [3] 0 | [4] 0 | [5] 0 | [6] 0 | [7] 0 | [8] 0 | [9] 0 | [10] 0

O=C(Nc1nccs1)C(c1cc(F)ccc1O)N1Cc2ccccc2C1=O (stereo not given) (10 µM)
inactive: [1] 0 | [2] 0 | [3] 0 | [4] 0 | [5] 0 | [6] 0 | [7] 0 | [8] 0 | [9] 0 | [10] 0

Cc1ccc(-n2c(-c3ccc(O)cc3O)n[nH]c2=O)cc1 (10 µM)
inactive: [1] 0 | [2] 0 | [3] 0 | [4] 0 | [5] 0 | [6] 0 | [8] 0
active: [7] 1 | [9] 1 | [10] 1
